# This is one part of the list.
# By UniProt entry, the sequences of proteins in these tests, tags left out. Where a name states a change or a piece, a line headed by the entry shows the natural chain unless it says otherwise.
# UniProt Q96GE9: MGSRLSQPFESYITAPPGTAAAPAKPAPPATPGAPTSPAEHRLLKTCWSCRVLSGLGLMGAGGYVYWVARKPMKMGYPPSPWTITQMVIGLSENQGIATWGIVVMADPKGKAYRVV
# UniProt Q7L014: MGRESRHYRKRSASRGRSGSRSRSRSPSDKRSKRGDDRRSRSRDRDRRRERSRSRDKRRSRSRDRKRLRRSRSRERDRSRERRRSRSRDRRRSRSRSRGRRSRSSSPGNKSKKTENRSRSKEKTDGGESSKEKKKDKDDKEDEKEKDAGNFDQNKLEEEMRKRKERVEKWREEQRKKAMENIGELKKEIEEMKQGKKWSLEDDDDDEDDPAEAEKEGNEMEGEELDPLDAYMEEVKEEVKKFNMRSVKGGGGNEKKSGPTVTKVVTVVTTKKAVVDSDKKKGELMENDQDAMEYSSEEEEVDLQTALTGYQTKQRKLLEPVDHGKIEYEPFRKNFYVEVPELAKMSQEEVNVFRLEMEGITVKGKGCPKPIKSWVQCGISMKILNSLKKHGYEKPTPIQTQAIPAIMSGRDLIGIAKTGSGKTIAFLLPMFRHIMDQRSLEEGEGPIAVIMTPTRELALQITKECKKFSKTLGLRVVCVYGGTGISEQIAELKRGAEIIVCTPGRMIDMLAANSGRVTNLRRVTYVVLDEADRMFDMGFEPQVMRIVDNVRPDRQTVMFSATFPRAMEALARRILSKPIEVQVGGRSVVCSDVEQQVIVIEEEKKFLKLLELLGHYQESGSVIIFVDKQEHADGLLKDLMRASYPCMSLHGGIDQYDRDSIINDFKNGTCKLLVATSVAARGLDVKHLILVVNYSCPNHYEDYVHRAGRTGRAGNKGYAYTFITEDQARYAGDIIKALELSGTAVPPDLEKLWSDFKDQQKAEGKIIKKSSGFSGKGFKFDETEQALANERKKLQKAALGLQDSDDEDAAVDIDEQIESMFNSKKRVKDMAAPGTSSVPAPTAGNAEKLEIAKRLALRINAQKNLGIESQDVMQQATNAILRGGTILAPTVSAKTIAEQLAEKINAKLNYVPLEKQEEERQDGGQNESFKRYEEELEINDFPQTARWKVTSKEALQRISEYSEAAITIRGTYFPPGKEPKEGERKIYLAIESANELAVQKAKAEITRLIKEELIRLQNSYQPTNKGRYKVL
# UniProt Q6P158: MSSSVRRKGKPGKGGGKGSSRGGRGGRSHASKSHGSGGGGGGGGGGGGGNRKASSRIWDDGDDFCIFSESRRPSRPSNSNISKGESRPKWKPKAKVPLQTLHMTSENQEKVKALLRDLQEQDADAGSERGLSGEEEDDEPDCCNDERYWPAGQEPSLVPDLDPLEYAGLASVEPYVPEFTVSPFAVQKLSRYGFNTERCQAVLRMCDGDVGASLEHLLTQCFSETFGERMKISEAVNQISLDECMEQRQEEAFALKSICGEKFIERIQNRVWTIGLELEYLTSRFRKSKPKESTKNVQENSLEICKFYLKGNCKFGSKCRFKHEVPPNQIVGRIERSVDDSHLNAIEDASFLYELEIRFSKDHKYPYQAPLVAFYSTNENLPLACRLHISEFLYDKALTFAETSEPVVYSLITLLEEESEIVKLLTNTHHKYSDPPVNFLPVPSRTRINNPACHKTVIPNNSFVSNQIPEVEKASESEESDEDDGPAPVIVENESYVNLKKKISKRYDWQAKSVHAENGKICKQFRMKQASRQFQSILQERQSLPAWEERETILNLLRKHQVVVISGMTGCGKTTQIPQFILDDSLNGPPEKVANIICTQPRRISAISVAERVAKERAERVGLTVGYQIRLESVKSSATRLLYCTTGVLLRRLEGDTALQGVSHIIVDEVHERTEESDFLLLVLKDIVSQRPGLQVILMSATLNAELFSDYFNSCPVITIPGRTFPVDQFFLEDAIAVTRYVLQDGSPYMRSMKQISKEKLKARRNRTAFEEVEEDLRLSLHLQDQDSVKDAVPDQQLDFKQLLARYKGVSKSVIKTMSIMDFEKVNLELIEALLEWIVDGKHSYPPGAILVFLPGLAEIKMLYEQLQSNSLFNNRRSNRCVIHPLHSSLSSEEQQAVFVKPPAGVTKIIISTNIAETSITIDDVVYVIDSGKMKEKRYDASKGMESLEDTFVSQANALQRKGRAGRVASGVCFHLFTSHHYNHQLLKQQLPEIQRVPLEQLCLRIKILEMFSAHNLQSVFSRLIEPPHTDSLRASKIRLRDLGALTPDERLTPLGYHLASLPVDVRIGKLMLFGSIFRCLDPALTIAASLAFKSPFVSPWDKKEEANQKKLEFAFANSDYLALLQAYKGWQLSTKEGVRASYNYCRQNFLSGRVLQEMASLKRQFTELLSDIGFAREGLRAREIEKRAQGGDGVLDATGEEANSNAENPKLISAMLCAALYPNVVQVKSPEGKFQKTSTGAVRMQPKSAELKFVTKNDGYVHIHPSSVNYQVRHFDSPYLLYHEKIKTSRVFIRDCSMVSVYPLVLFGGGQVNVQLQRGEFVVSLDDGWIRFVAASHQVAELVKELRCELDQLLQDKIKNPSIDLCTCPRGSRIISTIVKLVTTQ
# UniProt P98153: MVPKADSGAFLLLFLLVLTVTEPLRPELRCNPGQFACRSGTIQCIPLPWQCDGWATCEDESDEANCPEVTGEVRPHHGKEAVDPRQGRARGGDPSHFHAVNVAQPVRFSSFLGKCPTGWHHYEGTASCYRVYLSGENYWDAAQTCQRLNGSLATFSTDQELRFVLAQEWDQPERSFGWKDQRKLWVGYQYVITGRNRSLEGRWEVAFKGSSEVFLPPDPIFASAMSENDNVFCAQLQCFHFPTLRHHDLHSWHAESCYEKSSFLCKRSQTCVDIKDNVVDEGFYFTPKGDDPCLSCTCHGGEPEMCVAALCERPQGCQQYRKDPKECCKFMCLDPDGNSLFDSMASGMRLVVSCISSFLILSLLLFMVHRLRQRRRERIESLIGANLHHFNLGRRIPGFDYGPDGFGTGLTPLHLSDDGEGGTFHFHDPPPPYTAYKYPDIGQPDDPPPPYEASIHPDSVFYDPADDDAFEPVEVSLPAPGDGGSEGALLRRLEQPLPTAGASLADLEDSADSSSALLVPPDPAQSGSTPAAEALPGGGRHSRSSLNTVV
# UniProt P00374: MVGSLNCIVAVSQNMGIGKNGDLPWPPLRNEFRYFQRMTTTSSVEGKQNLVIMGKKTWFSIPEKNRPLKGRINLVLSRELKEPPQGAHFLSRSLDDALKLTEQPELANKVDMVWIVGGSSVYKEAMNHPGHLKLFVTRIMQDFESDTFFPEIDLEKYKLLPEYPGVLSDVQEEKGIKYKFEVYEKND
# UniProt Q9Y2L1: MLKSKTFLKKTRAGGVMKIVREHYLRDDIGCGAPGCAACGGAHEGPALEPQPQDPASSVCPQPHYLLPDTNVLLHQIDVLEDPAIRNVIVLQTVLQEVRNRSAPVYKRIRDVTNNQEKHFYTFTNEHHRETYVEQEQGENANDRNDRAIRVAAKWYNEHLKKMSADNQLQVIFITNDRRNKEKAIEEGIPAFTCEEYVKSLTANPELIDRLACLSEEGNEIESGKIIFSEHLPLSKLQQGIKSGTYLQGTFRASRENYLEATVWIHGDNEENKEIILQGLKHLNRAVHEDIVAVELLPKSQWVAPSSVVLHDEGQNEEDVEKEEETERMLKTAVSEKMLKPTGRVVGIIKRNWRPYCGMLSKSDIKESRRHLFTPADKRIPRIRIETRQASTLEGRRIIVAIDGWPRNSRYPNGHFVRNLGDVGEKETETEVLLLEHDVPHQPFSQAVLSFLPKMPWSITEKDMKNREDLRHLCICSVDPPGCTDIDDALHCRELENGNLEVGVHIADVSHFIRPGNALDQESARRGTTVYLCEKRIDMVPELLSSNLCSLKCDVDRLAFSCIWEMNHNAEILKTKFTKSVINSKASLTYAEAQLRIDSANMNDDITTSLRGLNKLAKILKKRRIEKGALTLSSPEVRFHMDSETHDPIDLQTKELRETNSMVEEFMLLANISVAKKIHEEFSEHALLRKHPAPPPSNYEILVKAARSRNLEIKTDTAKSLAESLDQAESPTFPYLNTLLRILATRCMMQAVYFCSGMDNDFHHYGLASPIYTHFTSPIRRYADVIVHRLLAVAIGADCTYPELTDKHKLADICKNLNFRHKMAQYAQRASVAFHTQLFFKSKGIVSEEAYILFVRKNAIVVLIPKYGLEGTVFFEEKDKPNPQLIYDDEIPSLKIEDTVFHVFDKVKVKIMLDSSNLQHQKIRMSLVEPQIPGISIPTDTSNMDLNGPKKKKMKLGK
# UniProt Q9BUQ8: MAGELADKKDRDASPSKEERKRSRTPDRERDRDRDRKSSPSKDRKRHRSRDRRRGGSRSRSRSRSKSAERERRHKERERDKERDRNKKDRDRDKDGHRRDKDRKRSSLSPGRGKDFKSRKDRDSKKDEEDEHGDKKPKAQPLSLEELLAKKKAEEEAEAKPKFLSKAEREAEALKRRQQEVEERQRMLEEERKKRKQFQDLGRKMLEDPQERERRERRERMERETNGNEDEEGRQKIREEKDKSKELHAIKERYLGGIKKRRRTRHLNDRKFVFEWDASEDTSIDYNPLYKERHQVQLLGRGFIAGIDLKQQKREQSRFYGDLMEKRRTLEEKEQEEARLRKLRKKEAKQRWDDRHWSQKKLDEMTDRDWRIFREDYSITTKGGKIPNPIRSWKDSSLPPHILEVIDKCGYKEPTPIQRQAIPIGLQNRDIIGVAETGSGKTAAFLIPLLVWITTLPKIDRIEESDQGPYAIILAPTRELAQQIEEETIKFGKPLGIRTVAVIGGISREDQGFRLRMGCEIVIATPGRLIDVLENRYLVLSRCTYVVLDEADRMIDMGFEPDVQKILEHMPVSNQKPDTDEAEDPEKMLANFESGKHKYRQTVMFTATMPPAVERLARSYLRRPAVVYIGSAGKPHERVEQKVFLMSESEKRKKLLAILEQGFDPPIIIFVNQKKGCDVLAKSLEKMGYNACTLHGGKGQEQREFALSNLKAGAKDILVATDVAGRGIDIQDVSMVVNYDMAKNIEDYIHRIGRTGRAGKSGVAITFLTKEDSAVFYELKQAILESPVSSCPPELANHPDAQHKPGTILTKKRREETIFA
# UniProt Q14562: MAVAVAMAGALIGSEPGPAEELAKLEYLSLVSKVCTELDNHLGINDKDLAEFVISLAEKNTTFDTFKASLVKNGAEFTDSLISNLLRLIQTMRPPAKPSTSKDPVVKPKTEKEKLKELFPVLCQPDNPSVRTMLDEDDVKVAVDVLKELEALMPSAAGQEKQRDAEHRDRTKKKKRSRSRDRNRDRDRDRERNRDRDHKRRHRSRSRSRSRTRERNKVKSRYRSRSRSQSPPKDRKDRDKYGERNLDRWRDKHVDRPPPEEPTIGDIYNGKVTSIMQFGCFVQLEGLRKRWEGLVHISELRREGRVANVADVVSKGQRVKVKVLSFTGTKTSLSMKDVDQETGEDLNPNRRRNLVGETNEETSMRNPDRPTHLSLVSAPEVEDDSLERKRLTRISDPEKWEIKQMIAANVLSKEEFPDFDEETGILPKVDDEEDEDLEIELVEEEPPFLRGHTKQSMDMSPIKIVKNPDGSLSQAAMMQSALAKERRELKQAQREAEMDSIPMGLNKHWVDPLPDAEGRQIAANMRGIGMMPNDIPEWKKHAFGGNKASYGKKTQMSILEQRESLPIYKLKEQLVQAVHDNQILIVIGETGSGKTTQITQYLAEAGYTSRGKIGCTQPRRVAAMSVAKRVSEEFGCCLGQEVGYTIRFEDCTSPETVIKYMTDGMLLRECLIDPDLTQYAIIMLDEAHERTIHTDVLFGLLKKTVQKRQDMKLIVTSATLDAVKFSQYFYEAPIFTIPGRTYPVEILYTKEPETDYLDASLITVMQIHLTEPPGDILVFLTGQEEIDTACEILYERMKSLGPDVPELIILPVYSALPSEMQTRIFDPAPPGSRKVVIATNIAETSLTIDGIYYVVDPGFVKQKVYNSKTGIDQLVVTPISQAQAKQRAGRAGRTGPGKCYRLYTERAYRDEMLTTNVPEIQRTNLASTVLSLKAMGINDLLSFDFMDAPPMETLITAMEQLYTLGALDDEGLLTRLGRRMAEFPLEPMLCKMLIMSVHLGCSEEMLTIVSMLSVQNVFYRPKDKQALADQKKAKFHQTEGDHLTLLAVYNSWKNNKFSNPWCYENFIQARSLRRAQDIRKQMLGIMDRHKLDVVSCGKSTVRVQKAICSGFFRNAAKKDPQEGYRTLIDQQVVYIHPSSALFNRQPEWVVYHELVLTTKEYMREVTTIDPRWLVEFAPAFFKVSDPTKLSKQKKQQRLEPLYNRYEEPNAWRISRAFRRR
# Key:
# Experiment in all cases: log2 fold change, soluble protein after heating vs DMSO (PISA); higher = thermal stabilisation; K562 cells, 10 uM, 30 min; active = over 0.2 and 3.5 SD of the protein, either way, in both replicates (recomputed)
# erlotinib = compound: C#Cc1cccc(Nc2ncnc3cc(OCCOC)c(OCCOC)cc23)c1 [erlotinib]
# Summary of the method: (§1)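 Aliquots of K562 cells (2×10^6 cells/mL) treated with 10 μM compound for 30 min were heated for 3 min over 48°C-58°C. After pooling and extraction in PBS with 0.5% NP-40 at 4°C, soluble protein from a 21,000xg, 90 min spin was quantified by TMTpro 16plex LC-MS/MS with channel sums equalised. Thermal stability is expressed against control samples, from duplicates, as a log2 fold change.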
# [1] = compound: C/C(=N\NC(=O)C1=CC(=CC=C1)S(=O)(=O)N2CCOCC2)/C3=C(C=CC(=C3)Cl)O
# Summary of the method: as §1
# [2] = compound: C1=CC(=C(C=C1Cl)C2=NC3=NC=CN=C3C(=N2)NC4=CC=NC=C4)F
# Summary of the method: as §1
# [3] = compound: C1=CC(=CC=C1C2=NC3=C(N2)C=C(C=C3)C(=O)N)OC4=CC=C(C=C4)Cl
# Summary of the method: as §1
# [4] = compound: C1=CC2=C(C=CC(=C2)/C=C\3/C(=O)NC(=NCC4=CC=CS4)S3)N=C1
# Summary of the method: as §1
# [5] = compound: C1=CC2=NC=CN=C2C=C1/C=C/3\C(=O)NC(=O)S3
# Summary of the method: as §1
# [6] = compound: C1=CC=C(C=C1)C2=NC(=C(N2)C3=CC=NC=C3)C4=CC(=C(C=C4)Cl)O
# Summary of the method: as §1
# [7] = compound: C1=CC=C2C(=C1)C3=NNC4=CC=CC(=C43)C2=O
# Summary of the method: as §1
# [8] = compound: C1CCN(C1)C(=O)NC2=CC=CC(=C2)NC3=NC=C(C(=N3)NCCC4=CN=CN4)Br
# Summary of the method: as §1
# [9] = compound: C1CN(CCC1(CC2=CC=C(C=C2)Cl)N)C3=NC=NC4=C3C=CN4
# Summary of the method: as §1
Target,log2 fold change (erlotinib),log2 fold change [1],log2 fold change [2],log2 fold change [3],log2 fold change [4],log2 fold change [5],log2 fold change [6],log2 fold change [7],log2 fold change [8],log2 fold change [9]
DFFB (UniProt O76075),inactive: -0.015,inactive: 0.103,inactive: 0.022,inactive: 0.035,inactive: 0.101,inactive: 0.016,inactive: 0.037,inactive: -0.005,active: -0.305,inactive: -0.039
DGKZ (UniProt Q13574),inactive: -0.109,inactive: 0,inactive: 0,inactive: 0.161,inactive: 0.027,inactive: 0.03,inactive: -0.054,inactive: 0.049,inactive: 0.003,inactive: -0.059
DMAC1 (UniProt Q96GE9),inactive: 0.041,inactive: 0.076,inactive: 0.128,inactive: -0.002,inactive: 0.059,inactive: -0.004,inactive: -0.04,inactive: -0.021,inactive: 0.008,inactive: 0.072
DDX20 (UniProt Q9UHI6),inactive: 0.14,inactive: -0.163,inactive: -0.494,inactive: -0.137,inactive: 0.093,inactive: 0.018,inactive: -0.032,inactive: -0.224,inactive: 0.012,inactive: -0.094
DDX46 (UniProt Q7L014),inactive: 0.053,inactive: 0.23,inactive: 0.134,inactive: 0.081,inactive: 0.034,inactive: 0,inactive: -0.023,inactive: -0.022,inactive: -0.062,inactive: -0.141
DDA1 (UniProt Q9BW61),inactive: -0.041,inactive: 0.02,inactive: 0.035,inactive: 0.055,inactive: 0.042,inactive: 0.048,inactive: -0.024,inactive: -0.024,inactive: 0.016,inactive: 0.016
DHX57 (UniProt Q6P158),inactive: -0.072,inactive: -0.071,inactive: -0.225,inactive: 0.049,inactive: -0.054,inactive: -0.059,inactive: 0.032,inactive: -0.027,inactive: 0.078,inactive: -0.072
DGCR2 (UniProt P98153),inactive: -0.006,inactive: -0.02,inactive: -0.028,inactive: 0.019,inactive: 0.073,inactive: 0.038,inactive: 0.122,inactive: -0.037,inactive: 0.007,inactive: 0.058
DMXL2 isoform 3 (UniProt Q8TDJ6),inactive: 0.194,inactive: -0.063,inactive: -0.033,inactive: -0.054,inactive: 0.208,inactive: -0.121,inactive: -0.024,inactive: -0.019,inactive: 0.164,inactive: 0.005
DHX9 (UniProt Q08211),inactive: -0.081,inactive: -0.095,inactive: -0.338,inactive: 0.033,inactive: -0.054,inactive: 0.065,inactive: -0.065,inactive: -0.083,inactive: 0.036,inactive: -0.103
DHFR (UniProt P00374),inactive: 0.156,inactive: 0,inactive: -0.176,inactive: -0.144,inactive: 0.03,inactive: 0.043,inactive: 0.055,inactive: 0.049,inactive: -0.047,inactive: -0.015
DIS3 (UniProt Q9Y2L1),inactive: 0.086,inactive: 0.128,inactive: 0.083,inactive: -0.002,inactive: 0.105,inactive: 0.032,inactive: 0.029,inactive: 0.031,inactive: -0.106,inactive: -0.068
DDX23 (UniProt Q9BUQ8),inactive: -0.104,inactive: -0.09,inactive: -0.113,inactive: 0.043,inactive: -0.029,inactive: 0.098,inactive: -0.131,inactive: -0.051,inactive: 0.056,inactive: -0.104
DICER1 (UniProt Q9UPY3),inactive: 0.067,inactive: -0.115,inactive: -0.329,inactive: 0.086,inactive: 0.02,inactive: -0.041,inactive: 0.09,inactive: -0.104,inactive: -0.063,inactive: -0.066
DHX8 (UniProt Q14562),inactive: 0.033,inactive: -0.059,inactive: -0.034,inactive: 0.03,inactive: 0.205,inactive: 0.06,inactive: -0.041,inactive: -0.048,inactive: 0.046,inactive: 0.027

# Reformatted: entries from further up
Target | log2 fold change (erlotinib) | log2 fold change [1] | log2 fold change [2] | log2 fold change [3] | log2 fold change [4] | log2 fold change [5] | log2 fold change [6] | log2 fold change [7] | log2 fold change [8] | log2 fold change [9]
DMAC1 (UniProt Q96GE9) | inactive: 0.041 | inactive: 0.076 | inactive: 0.128 | inactive: -0.002 | inactive: 0.059 | inactive: -0.004 | inactive: -0.04 | inactive: -0.021 | inactive: 0.008 | inactive: 0.072
DDX20 (UniProt Q9UHI6) | inactive: 0.14 | inactive: -0.163 | inactive: -0.494 | inactive: -0.137 | inactive: 0.093 | inactive: 0.018 | inactive: -0.032 | inactive: -0.224 | inactive: 0.012 | inactive: -0.094
